PubChem BioAssay AID1259425 | University of Nebraska Medical Center – 2018

Aim: 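Find knockdowns that reproduce the gene expression pattern seen when KSR1 is lost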 (primary screen)
System: HCT116 human colon cancer cells
Reagent: siRNA pool against human genes, 50 nM siRNA
Measurement: 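After 50 nM siRNA pool, branched-DNA assay measures six marker transcripts per well, minus blank, normalised to the geometric mean of two housekeeping transcripts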
Reading the numbers: BNIP3L mRNA: higher = more BNIP3L transcript after knockdown
Shown is an unselected part of about 14,000 reagents. Not all columns of the deposit are shown. No sequences are given here. Not stated in the record: the time to read-out.

BNIP3L mRNA, set 1 | target gene | PubChem SID
0.55 | THOC2 | SID364005194
0.121 | SEMA6A | SID364001834
0.195 | MUC7 | SID364004704
0.124 | RNF20 | SID364001424
0.205 | SLC12A7 | SID363997388
0.0976 | ACTR8 | SID364002591
0.125 | TM9SF3 | SID364001487
0.106 | CGREF1 | SID363997360
0.134 | SNN | SID363994595
0.08 | KIF1B | SID363999287
0.136 | SMPDL3A | SID363997494
0.0839 | PCDHA13 | SID364001231
0.104 | CDK9 | SID363992546
0.0995 | TEK | SID363991790
0.0927 | CYCS | SID364001274
0.15 | PCDHGB3 | SID364001251
0.195 | IQGAP1 | SID363994930
0.121 | CAPZA1 | SID363996966
0.166 | CSGALNACT1 | SID364001015
0.113 | POLR3G | SID363997275
0.0814 | YIPF1 | SID364001305

Continued; the last 6 above are carried over.
BNIP3L mRNA, set 1 | target gene | PubChem SID
0.15 | PCDHGB3 | SID364001251
0.195 | IQGAP1 | SID363994930
0.121 | CAPZA1 | SID363996966
0.166 | CSGALNACT1 | SID364001015
0.113 | POLR3G | SID363997275
0.0814 | YIPF1 | SID364001305
0.141 | NARF | SID363998246
0.215 | RPGRIP1 | SID364001634
0.121 | SLC13A4 | SID363998326
0.29 | GLI1 | SID363996189
0.151 | NFE2L1 | SID363994337
0.175 | CAPN9 | SID363997405
0.0952 | LRRC19 | SID364002593
0.152 | ZDHHC2 | SID364000053
0.0897 | LRCH2 | SID364001878
0.0455 | IFT74 | SID364003249
0.117 | OTUD5 | SID364000388
0.078 | ZNF432 | SID363999011
0.146 | DKFZP586K1520 (retired record) | SID364005565
0.0379 | C6orf15 | SID363998592
0.408 | COTL1 | SID364002045
0.0791 | PPM1B | SID363993865
0.11 | CLCA3P | SID363995865
0.219 | CUTALP | SID363991349
0.0711 | MYL7 | SID364002107
0.0777 | POLR2B | SID363992222
0.183 | CMA1 | SID363993051
0.0537 | PPP1R15A | SID363998759
0.174 | CLPTM1L | SID364003434
0.0511 | PAPPA | SID363993750
0.0783 | TTC12 | SID364000598
0.216 | ZBTB17 | SID363994544
0.221 | MEIS3 | SID364005263
0.14 | MRPL46 | SID364002386
0.0845 | ZNF446 | SID364000633
